The whole screen tested about 300,000 compounds, of which about 3,700 (1.2%) were called active. This list was built around the results that the source calls inconclusive (neither active nor inactive); the mix of calls is not that of the screen. Calls follow the shape of the full dose curve; tested in HEK293 cells. Potencies of inconclusive entries are doubtful fits and often do not repeat.
experiment: qHTS for Inhibitors of binding or entry into cells for Lassa Virus; settings: Lassa virus pseudotype entry inhibition, cell reporter; activity change, negative = inhibition: at 37.9 µM (top of the series) unless noted; also: nearly all actives have a fitted effect of over 50% in size
% is scaled to controls: 0 for no effect and ±100 for the full control effect; potency is read from the fitted curve at half-maximal effect.

Row | Compound | Potency | activity change, negative = inhibition
1 | COc1ccc(N2CCN(C(=O)c3cc4c(-c5cccc(OC)c5)nn(C)c4s3)CC2)cc1 | inconclusive: 10.3 µM [inhibitor, partial curve, poor fit] | 
2 | CCC1(c2ccccc2)NC(=O)N(CC(=O)NCc2ccc(C)cc2)C1=O (stereo not drawn) | inconclusive: 0.355 µM [inhibitor, partial curve, poor fit] | 
3 | N#Cc1c(N2CCCCC2)nc(N2CCCCC2)c2c1CCN(Cc1ccccc1)C2 | inconclusive: 29.1 µM [inhibitor, single point] | 
4 | COc1ccc(CNCc2c(C(=O)O)n(Cc3ccc(F)cc3)c3cc(C)ccc23)cc1OC | inconclusive: 35.5 µM [inhibitor, single point] | 
5 | CN(C)CCN(Cc1ccco1)C(=O)c1oc2ccccc2c1NC(=O)c1cccc(F)c1 | inconclusive: 35.5 µM [inhibitor, single point] | 
6 | CCOCCCNC(=O)c1ccc(-n2c(-c3ccccc3)cc3c2CCCCC3)cc1 |  | inactive: -8.47% [at 46.1 µM]
7 | N#C/C(=C\c1c(N2CCCCC2)nc2ccccn2c1=O)C(=O)NCc1ccco1 |  | inactive: 1.11%
8 | CNc1ncnc2c1ncn2[C@@H]1O[C@H](CO)[C@@H](O)[C@H]1O | inconclusive: 20.6 µM [inhibitor, single point] | 
9 | COc1cc(/C=C2/C(=O)NC(=O)N(c3ccc(C)cc3)C2=O)cc(OC)c1OC |  | inactive: 2.91%
10 | O=C(c1cc(-c2ccc(Cl)cc2)on1)N1CCN(c2ccc(F)cc2)CC1 | inconclusive: 3.98 µM [inhibitor, single point] | 
11 | CCN(CC)c1ccc(NC(=O)COC(=O)Cc2ccsc2)cc1 |  | inactive: 6.01%
12 | Oc1ccccc1CNc1nccs1 | inconclusive: 3.98 µM [activator, single point] | 
13 | CN(C)CCCNc1cc(C(C)(C)C)nc2c(-c3ccccc3)cnn12 | inconclusive: 7.08 µM [inhibitor, partial curve, poor fit] | 
14 | O=C(CSc1nc2ccccc2c(=O)n1-c1ccc(F)cc1)Nc1cc(S(=O)(=O)N2CCOCC2)ccc1Cl | inconclusive: 3.16 µM [inhibitor, single point] | 
15 | CC(C)=CCCC1=CCC(/C=N/NC(N)=O)C(C)C1 (stereo not drawn) | inconclusive: 3.98 µM [inhibitor, single point] | 
16 | CCn1c(N2CCN(S(=O)(=O)CC)CC2)nc2ccccc21 | inconclusive: 0.891 µM [activator, single point] | 
17 | CN(C(=O)COC(=O)CNC(=O)C12CC3CC(CC(C3)C1)C2)c1ccccc1 | inconclusive: 22.4 µM [inhibitor, single point] | 
18 | CCOC(=O)C1=C(C)NC(C)=C(C(=O)OCC)C1c1cn(-c2ccccc2)nc1-c1ccco1 |  | inactive: -0.911%
19 | Cc1nn(-c2ccccc2)c2sc(C(=O)OC3CCOC3=O)cc12 (stereo not drawn) | inconclusive: 35.5 µM [inhibitor, single point] | 
20 | COc1ccc(OCCN2C(=O)NC3(CCc4ccccc4C3)C2=O)cc1 (stereo not drawn) | inconclusive: 32.6 µM [inhibitor, partial curve, poor fit] | 
21 | Cc1ccc(/C=N/NC(=O)c2cc(C)oc2C)cc1 | inconclusive: 0.316 µM [inhibitor, full curve, poor fit] | 
22 | CC1CCCN(CCOc2ccc(Br)cc2)C1 (stereo not drawn) |  | inactive: -17.9%
23 | CC1CCN(S(=O)(=O)c2ccc3c(c2)oc(=O)n3CC(=O)O)CC1 |  | inactive: 3.37% [at 46.1 µM]

As entered above:
Entry for Oc1ccccc1CNc1nccs1 under Potency: inconclusive: 3.98 µM [activator, single point]
Entry for CC(C)=CCCC1=CCC(/C=N/NC(N)=O)C(C)C1 (stereo not drawn) under Potency: inconclusive: 3.98 µM [inhibitor, single point]
Entry for CC1CCN(S(=O)(=O)c2ccc3c(c2)oc(=O)n3CC(=O)O)CC1 under activity change, negative = inhibition: inactive: 3.37% [at 46.1 µM]
Entry for CN(C)CCCNc1cc(C(C)(C)C)nc2c(-c3ccccc3)cnn12 under Potency: inconclusive: 7.08 µM [inhibitor, partial curve, poor fit]
Entry for CNc1ncnc2c1ncn2[C@@H]1O[C@H](CO)[C@@H](O)[C@H]1O under Potency: inconclusive: 20.6 µM [inhibitor, single point]
Entry for N#Cc1c(N2CCCCC2)nc(N2CCCCC2)c2c1CCN(Cc1ccccc1)C2 under Potency: inconclusive: 29.1 µM [inhibitor, single point]

Further compounds follow:

Row | Compound | Potency | activity change, negative = inhibition
24 | C/C(CCC1CC(C)(C)OC1=O)=N\NC(N)=S (stereo not drawn) |  | inactive: 22.2%
25 | CCN(CC)S(=O)(=O)c1cccc(C(=O)OCC(=O)c2ccc3c(c2)OCCO3)c1 | inconclusive: 2.06 µM [inhibitor, partial curve, poor fit] | 
26 | Cc1ccc(SC2=C(N(C)C)C(=O)c3ccccc3C2=O)cc1 | inconclusive: 3.55 µM [inhibitor, full curve] | 
27 | CCN(c1ccccc1)S(=O)(=O)c1ccc(C(=O)OC(C)C(=O)NCCC2=CCCCC2)cc1 (stereo not drawn) | inconclusive: 22.4 µM [inhibitor, single point] | 
28 | CCOC(=O)c1ccc(NC(=O)Cn2ncc(Cl)c(Cl)c2=O)cc1 | inconclusive: 12.6 µM [inhibitor, partial curve, poor fit] | 
29 | CCOC(=O)C1CCCN(C(=O)CN2C(=O)COc3ccc(C(C)(C)C)cc32)C1 (stereo not drawn) |  | inactive: -2.19%
30 | COc1ccc(NC(=O)CN2CCC(C)CC2)c([N+](=O)[O-])c1 |  | inactive: -4.53%
31 | Cc1ccc(-n2cc(C(=O)c3cc(Cl)ccc3O)cc(C#N)c2=O)cc1 |  | inactive: -10.4%
32 | CN(c1ccccc1)S(=O)(=O)c1cccc(NC(=O)CSc2ncc(C(F)(F)F)cc2Cl)c1 | inconclusive: 5.62 µM [inhibitor, partial curve, poor fit] | 
33 | O=C(CSc1nnc(-c2ccccc2)c(-c2ccccc2)n1)Nc1ccc(Br)cn1 | inconclusive: 11.2 µM [inhibitor, partial curve, poor fit] | 
34 | CCNC(=S)NNC(=O)c1cc(-c2ccc(OC)cc2)nc2ccccc12 | active: 3.26 µM | 
35 | CCc1cc(=O)[nH]c(SCc2nc(-c3ccccc3)no2)n1 |  | inactive: -2.96% [at 46.1 µM]
36 | N[C@@H](CC(=O)O)C(=O)O | inconclusive: 16.4 µM [inhibitor, single point] | 
37 | O=c1c2ccccc2cnn1-c1ccc(Cl)cc1 | inconclusive: 12.6 µM [inhibitor, single point] | 
38 | Clc1cc(-c2ccccc2)nc(-c2ccccc2)n1 | inconclusive: 35.5 µM [inhibitor, partial curve, poor fit] | 
39 | CC(=O)N1CCc2cc(S(=O)(=O)CCC(=O)N3CCN(C(=O)c4ccco4)CC3)ccc21 | inconclusive: 12.6 µM [activator, partial curve, poor fit] | 
40 | O=C(Nc1ccccc1)c1ccc(S(=O)(=O)NCc2cccnc2)cc1 |  | inactive: -46.4%
41 | COC(=O)c1ccc(NC(=O)c2ccccc2NS(=O)(=O)c2ccccc2)cc1 | inconclusive: 18.3 µM [inhibitor, partial curve, poor fit] | 
42 | CC1CCN(C(=O)CCNS(=O)(=O)c2ccc(Cl)cc2)CC1 |  | inactive: 9.28%
43 | CCN=C1S/C(=C\c2ccc(N3CCOCC3)cc2C)C(=O)N1CC | inconclusive: 2 µM [inhibitor, partial curve, poor fit] | 
44 | CSc1nc(N)nc(SCCS(=O)(=O)c2ccc(Cl)cc2)c1C#N |  | inactive: 0.123%
45 | O=C(NCCc1c[nH]c2ccccc12)C(=O)NCC1OCCCN1S(=O)(=O)c1cccs1 (stereo not drawn) | inconclusive: 6.31 µM [inhibitor, single point] | 
46 | COc1cccc2c1C1(O)C2CCCCCCCCCC12OCCCO2 (stereo not drawn) | inconclusive: 6.31 µM [inhibitor, full curve, poor fit] | 

Row | Compound | Potency | activity change, negative = inhibition
47 | Cc1oc(-c2cc3c(cc2Cl)OCO3)nc1CN1CCCC(C(=O)N2CCOCC2)C1 (stereo not drawn) |  | inactive: 8.92% [at 46.1 µM]
48 | COc1ccccc1N(C(=O)c1snc(C(N)=O)c1N)C(C(=O)NC1CCCC1)c1ccco1 (stereo not drawn) | inconclusive: 1.03 µM [inhibitor, partial curve, poor fit] | 
49 | CCNC(=O)c1c(NC(=O)c2nc(S(=O)(=O)CC)ncc2Cl)sc2c1CCCC2 | active: 7.94 µM | 
50 | CCOC(=O)N1CCC(NC(=O)C2CCCN(Cc3nc(-c4cccc(C)c4)oc3C)C2)CC1 (stereo not drawn) | inconclusive: 11.2 µM [inhibitor, partial curve, poor fit] | 
51 | COc1cc2c(cc1OC)C(c1cccc([N+](=O)[O-])c1)N(C(=O)c1ccc(F)cc1)CC2 (stereo not drawn) | inconclusive: 35.5 µM [inhibitor, single point] | 
52 | O=C(NC1CCCCC1)c1csnn1 | inconclusive: 3.55 µM [activator, full curve, poor fit] | 
53 | CCCCNC(=S)N/N=C/c1cccc(OCC)c1O |  | inactive: 7.12%
54 | CCN(C(=O)c1cn(CC(C)C)c(=O)c2cc(OC)c(OC)cc12)c1cc(OC)ccc1OC |  | inactive: -11.4% [at 46.1 µM]
55 | Cc1ccc(-c2nn(C)c(=O)c3ccccc23)cc1CNC(=O)c1ccccc1 | active: 11.2 µM | 
56 | CC(OC(=O)CCN=C1NS(=O)(=O)c2ccccc21)C(=O)N(C)C1CCCCC1 (stereo not drawn) |  | inactive: -15.3% [at 46.1 µM]
57 | CC(C(=O)c1ccccc1)C(O)c1ccccn1 (stereo not drawn) | inconclusive: 31.6 µM [inhibitor, partial curve, poor fit] | 
58 | CCC(NC(=S)NCc1ccc(F)cc1)c1ccc(C)cc1 (stereo not drawn) | inconclusive: 35.5 µM [inhibitor, single point] | 
59 | O=C1/C(=C/c2ccccc2)CCCc2ccccc21 | inconclusive: 16.4 µM [activator, partial curve, poor fit] | 
60 | Cc1ccccc1N1CCN(S(=O)(=O)c2ccc3ccccc3c2)CC1 | inconclusive: 25.1 µM [inhibitor, single point] | 
61 | O=C1/C(=C\c2cc(Cl)c(O)c(Cl)c2)SC(=S)N1Cc1ccccc1 | active: 3.98 µM | 
62 | C/C(=N\Nc1nncc2ccccc12)c1ccc(O)cc1 | inconclusive: 5.01 µM [inhibitor, full curve, poor fit] | 
63 | Cc1ccccc1Nc1c(-c2ccccc2)nc2cccc(C)n12 |  | inactive: -13% [at 46.1 µM]
64 | Fc1ccc2nc(Nc3nc4cc5c(cc4s3)OCCO5)sc2c1 | inconclusive: 35.5 µM [inhibitor, single point] | 
65 | CN(CC(=O)NCCc1ccc(S(N)(=O)=O)cc1)CC(=O)Nc1ccccc1C(F)(F)F |  | inactive: 6.45%
66 | O=C(Nc1cccc(Cl)c1)C1CCCN(c2ncnc3c2nc2n3CCCCC2)C1 (stereo not drawn) | inconclusive: 12.6 µM [inhibitor, partial curve, poor fit] | 
67 | CCOc1ccc(C(=S)NC2CCCCC2)cc1 | inconclusive: 14.6 µM [activator, partial curve] | 
68 | Cc1nc(-c2ccc(F)cc2)c(CC(=O)N2CCN(S(=O)(=O)c3cccc(Cl)c3)CC2)s1 | inconclusive: 12.6 µM [inhibitor, partial curve, poor fit] | 

Source: PubChem BioAssay AID540256 (National Center for Advancing Translational Sciences (NCATS), 2011)
